In the supplement of paper PMC4683952:
The other results are listed elsewhere or left out. Cut-off read from the data, not from the text of the source: active = 2 or more and inactive = the rest. This data set is noisy: repeats of one test often differ as much as different tests do.

The compounds below were run on Lgr5 (MarsCy1-Lgr5-EGFP, U2OS) (assay: cell-surface Lgr5 expression (SCi1 fluorescence, background-subtracted) relative to WT DMSO (fold of DMSO control); higher = more Lgr5 at the plasma membrane). Settings: U2OS MarsCy1-Lgr5-EGFP stable; treatment time: overnight; library: ActiProbe-5K (TimTec); 25 µM.

cell-surface Lgr5 expression, inactive:
CC(C)(C)S(=O)(=O)c1ccc(Br)cc1 1.45
O=C1NC(=S)S/C1=C/c1ccc(-c2ccc3c(c2)C(=O)C2C=CC=CC2C3=O)o1 (stereo not given) 1.29
FC(F)(F)c1ccc(/C=N\n2c(S)nnc2-c2ccccc2)cc1 1.09
C(N1c2c(cccc2)CC1)(/N=C(\N)N)=N.Cl 1.01
CCCCCCCCCCCCCCCCCC(=O)NC1CC(C)CC(C)(C)C1 (stereo not given) 1.31
Sc1nnnn1-c1ccccc1 1.49
CN(c1nc2ccccn2c(=O)c1/C=C1/SC(=S)N(CC2CCCO2)C1=O)C1CCCCC1 (stereo not given) 1.05
Cl.NC1(COc2ccc(F)cc2)CC1 1.27
COc1ccc2c(c1OC)C(=O)N1c3ccccc3C(=O)OC21 (stereo not given) 0.977
COc1ccc(-c2ccc3cc(OC)c(OC)cc3c2O)cc1OC 1.03
Cc1ccc(C2=NNC(c3ccc(F)cc3)S2)cc1 (stereo not given) 0.975
CCCCCCCCSc1ncn[nH]1 0.893
Clc1nc(Cl)c2[nH]cnc2n1 1.24
Clc1ccc(Cl)c(N/N=C/c2ccccn2)c1 1.27
CSc1nnc(COc2ccccc2)n1C 1.22
C(=N/C(/N=C/c1cccs1)c1cccs1)/c1cccs1 (stereo not given) 1.09
[O-]c1n[n+](-c2ccc(Cl)cc2)no1 1.09
C1=CC2CC1CC2CN1CCN(C2CCC(c3ccccc3)CC2)CC1 (stereo not given) 1.09
Clc1ccc(C2Oc3ccccc3C3=C2C(c2ccc(Cl)cc2)n2ncnc2N3)cc1 (stereo not given) 1.64
CCSC1=C(C#N)C(=N)n2c1cc1c2CCCC1 1.05
Clc1nc2ccccc2cc1/C=N/Nc1nc2ccccc2nc1Cl 1.19
O=S(=O)(c1ccc2c(c1)oc1ccccc12)N1CCOCC1 1.01
S=C1NC2(CCCCCCC2)NN1c1ccc(Cl)cc1 1.02
O=C(CCCCC(=O)NCCC1=CCCCC1)NCCC1=CCCCC1 0.935
c1ccc(/N=C(/Nc2ccccc2)N2CCOCC2)cc1 1.43
CCc1sc(C2C(C#N)=C(N)Oc3[nH]nc(C)c32)cc1Br (stereo not given) 1.12
CSc1nsc(SC)c1CNC(=O)c1ccn(C(F)F)n1 1.03
C(=N/c1ccccc1/N=C\c1c[nH]c2ccccc12)/c1c[nH]c2ccccc12 1.1
C(=C/c1nn2cnnc2s1)/c1ccccc1 1.17
CN(C)S(=O)(=O)Nc1ccc(Oc2ccc3c(c2)OCO3)cc1 1.11
OCCC1CNCCN1CC1CCCCC1 (stereo not given) 1.21
CCOc1ccc(-n2sc3c(c2=S)-c2ccc(OC)cc2NC3(C)C)cc1 0.723
O=S(=O)(NC1CCCCCC1)c1ccc(Cl)cc1 1.34
O=C(CCCCC(=O)NNC(=O)C1CCCCC1)NNC(=O)C1CCCCC1 0.958
Cc1cc(S(=O)(=O)NC2CCCCC2)c(C)s1 1.21
N#CCSc1n[nH]c(=O)[nH]c1=O 1.1
CSc1ccc(C(C)=O)s1 1.07
CCCCCCCCCn1c[n+](CCCCCCCCC)c2cc(C)c(C)cc21.[Br-] 0.716
CCNC(=O)n1cc(Cl)cn1 1.08
CC(C)(C)C(=O)CSc1nnc(-c2cccs2)o1 0.983
Sc1nnc(C2CCCCC2)n1/N=C\c1c[nH]c2ccccc12 0.608
NCCCCCCNc1nc2c(=O)[nH]cnc2n1C1OC(CO)C(O)C1O (stereo not given) 0.825
Oc1c(Br)cc(Br)cc1/C=N\c1ccccn1 0.999
CN(/N=C\c1ccccc1F)C1=NS(=O)(=O)c2ccccc21 1.71
CN(CC/C(N)=N/O)C(=O)c1ccco1 1.14
CC(=O)Nc1nc(CSCc2n[nH]c(=O)[nH]2)cs1 1.05
[Br-].c1ccc(Cc2ccc[n+](Cc3ccccn3)c2)cc1 1.13
O=c1[nH]cnc2cc3c(=O)[nH]cnc3cc12 1.21
Cc1noc2c1C(c1ccsc1)C(C#N)=C(N)N2 (stereo not given) 1.63
O=C(NCCN1CCOCC1)C12CC3CC(CC(C3)C1)C2 1.33
Oc1nc(S)nc2ccccc12 1.05
CCc1nnc(CC)n1N 1.33
Nc1nnc(C2CCCCC2)s1 1.23
CCCCC(CC)C(=O)N1CC(C)OC(C)C1 (stereo not given) 1.08
CCOC(=O)c1[nH]c(C)c(C(C)=O)c1C 1.51
NCc1nc2cc(Cl)ccc2[nH]1 1.18
O=c1[nH]c2ccccc2s1 1.37
O=S(=O)(c1ccccc1)c1ccsc1 1.29
C=CCC1(CC=C)CCN1C(=O)c1cnc(SC)nc1 0.882
Nc1ccc(/N=N\c2ccc(N(CCO)CCO)cc2)cc1 0.878
COc1ccc(N/C(=N/C#N)SC)cc1 0.925
Cn1ncc(Cl)c1-c1nc(-c2nonc2N)no1 1.1
CCC1CCC2(CC1)C(C#N)=C(N)OC1=C2C(=O)CC(C)(C)C1 (stereo not given) 1.14
O=C(CSc1n[nH]c(=O)n1-c1ccccc1)c1ccccn1 1.26
C/C(=N\NC(=O)c1ccoc1C)C(C)(C)C 1.31
O=C(CCCCCCCC(=O)Nc1nccs1)Nc1nccs1 1.01
Cc1nn(CC(=O)N2CCN3CCCC3C2)cc1Cl (stereo not given) 0.97
CCc1[nH]nc2c1C1(CCOCC1)C(C#N)=C(N)O2 1.09
O=C(O)c1nn(C23CC4CC(CC(C4)C2)C3)cc1[N+](=O)[O-] 1.03
Cn1ccc(-c2ccnc(NN)n2)n1 1

Two neighbouring compounds out of the list so far:
cell-surface Lgr5 expression, inactive:
O=C(CCCCC(=O)NCCC1=CCCCC1)NCCC1=CCCCC1 0.935
c1ccc(/N=C(/Nc2ccccc2)N2CCOCC2)cc1 1.43
